From PubChem BioAssay AID248 (DTP/NCI, 2004)
The list does not hold the whole screen: it gathers tests that were run many times, whatever their T/C, doses with no T/C, and many T/C values between a quarter and a half above the control. Other doses and runs of a compound stand elsewhere. T/C: endpoint of the treated group in % of that of the vehicle group. Some entries give survivors of the animals treated and no T/C: the source holds a T/C of zero for them, seemingly a mark for toxic or unscored doses. Some doses without a T/C left all or most animals alive at the check, yet need not have been tolerated: the source hardly ever lists a survival T/C far under the control, and the zero likely stands for such cases as well. Counts of survivors are from the toxicity check (mostly the fifth day) where no day follows; animals may have died later. Schedule codes are those of the source, read here as Q, the interval in days (D) or hours (H), X, the number of doses. For survival time, the PubChem record calls one and a half times the control and up active, and a quarter to a half above the control has no call in these data; cut-offs in other NCI protocols can differ. Some doses were run more than once; their values stand side by side, smallest first. Brackets with × count equal records among those shown. Some schedule codes hold Z or #, which are not explained here. Some T/C values are followed by the survivors on the day toxicity was checked, most often the fifth; without a count, all were alive then.

Tested on: L1210 leukemia ip in BDF1 mice, survival T/C
Test: NCI In Vivo Anticancer Drug Screen. Data for tumor model L1210 Leukemia (intraperitoneal) in B6D2F1 (BDF1) mice
Conditions: T/C endpoint: mean survival time, higher T/C = longer survival

With `N=[N+]=CC(=O)OCC(N)C(=O)O` (stereo not given) the T/C (dose: 0.12 mg/kg/injection, schedule: Q#A X Z (ip), vehicle: saline) was 137 % of control, the T/C (dose: 0.25 mg/kg/injection, schedule: Q#A X Z (ip), vehicle: saline) was 140 and 141 % of control and the T/C (dose: 0.43 mg/kg/injection, schedule: Q01DX009 (ip), vehicle: saline) was 131 % of control. The T/C (dose: 0.5 mg/kg/injection, schedule: Q01DX010 (ip), vehicle: saline) was 129 % of control, the T/C (dose: 0.5 mg/kg/injection, schedule: Q#A X Z (ip), vehicle: saline) was 136 and 145 % of control and the T/C (dose: 1.0 mg/kg/injection, schedule: Q01DX005 (ip), vehicle: saline) was 126 % of control. The T/C (dose: 1.0 mg/kg/injection, schedule: Q01DX009 (ip), vehicle: saline) was 126 % of control, the T/C (dose: 1.0 mg/kg/injection, schedule: Q01DX010 (ip), vehicle: saline) was 127 % of control and the T/C (dose: 1.0 mg/kg/injection, schedule: Q01DX Z (ip), vehicle: saline) was 127 % of control. The T/C (dose: 1.0 mg/kg/injection, schedule: Q#A X Z (ip), vehicle: saline) was 136 and 149 % of control, the T/C (dose: 1.25 mg/kg/injection, schedule: Q01DX Z (ip), vehicle: saline) was 146 % of control and the T/C (dose: 1.44 mg/kg/injection, schedule: Q01DX Z (ip), vehicle: carboxymethylcellulose (CMC)) was 128 % of control. The T/C (dose: 1.57 mg/kg/injection, schedule: Q01DX010 (ip), vehicle: saline) was 126, 127, 131, 139 % of control, the T/C (dose: 2.0 mg/kg/injection, schedule: Q01DX009 (ip), vehicle: saline) was 133 % of control and the T/C (dose: 2.0 mg/kg/injection, schedule: Q01DX010 (ip), vehicle: saline) was 131 and 133 % of control. The T/C (dose: 2.0 mg/kg/injection, schedule: Q01DX Z (ip), vehicle: saline) was 130, 134 [5 of 6 alive], 137 % of control, the T/C (dose: 2.0 mg/kg/injection, schedule: Q#A X Z (ip), vehicle: saline) was 136 and 149 % of control and the T/C (dose: 2.4 mg/kg/injection, schedule: Q01DX Z (ip), vehicle: carboxymethylcellulose (CMC)) was 131 % of control [9 of 10 alive]. The T/C (dose: 2.5 mg/kg/injection, schedule: Q01DX Z (ip), vehicle: saline) was 146 % of control, the T/C (dose: 3.13 mg/kg/injection, schedule: Q01DX010 (ip), vehicle: saline) was 129, 130, 134, 144 % of control and the T/C (dose: 3.3 mg/kg/injection, schedule: Q01DX009 (ip), vehicle: saline) was 115 (2×), 128, 134 % of control. For the same molecule, the T/C (dose: 3.6 mg/kg/injection, schedule: Q01DX Z (ip), vehicle: carboxymethylcellulose (CMC)) was 127 and 134 % of control, the T/C (dose: 4.0 mg/kg/injection, schedule: Q01DX005 (ip), vehicle: saline) was 133 % of control and the T/C (dose: 4.0 mg/kg/injection, schedule: Q01DX006 (iv), vehicle: saline) was 127 % of control. The T/C (dose: 4.0 mg/kg/injection, schedule: Q01DX009 (ip), vehicle: saline) was 140 % of control, the T/C (dose: 4.0 mg/kg/injection, schedule: Q01DX009 (sc), vehicle: saline) was 129 % of control and the T/C (dose: 4.0 mg/kg/injection, schedule: Q01DX Z (ip), vehicle: saline) was 144 % of control. For the same molecule, the T/C (dose: 4.0 mg/kg/injection, schedule: Q03HX024 (ip), vehicle: saline) was 139 % of control, the T/C (dose: 4.0 mg/kg/injection, schedule: Q## X024 (ip), vehicle: saline) was 135 % of control and the T/C (dose: 4.0 mg/kg/injection, schedule: Q#A X Z (ip), vehicle: saline) was 132 % of control. For the same molecule, the T/C (dose: 4.1 mg/kg/injection, schedule: Q02DX010 (ip), vehicle: carboxymethylcellulose (CMC)) was 131 and 139 % of control, the T/C (dose: 5.0 mg/kg/injection, schedule: Q01DX Z (ip), vehicle: saline) was 138 % of control and the T/C (dose: 5.3 mg/kg/injection, schedule: Q01DX015 (ip), vehicle: saline) was 144 % of control. For the same molecule, the T/C (dose: 6.0 mg/kg/injection, schedule: Q02DX010 (ip), vehicle: carboxymethylcellulose (CMC)) was 136 % of control, the T/C (dose: 6.02 mg/kg/injection, schedule: Q02DX010 (ip), vehicle: carboxymethylcellulose (CMC)) was 140 % of control and the T/C (dose: 6.2 mg/kg/injection, schedule: Q02DX008 (ip), vehicle: saline) was 125 % of control. The T/C (dose: 6.2 mg/kg/injection, schedule: Q02DX010 (ip), vehicle: carboxymethylcellulose (CMC)) was 141 and 148 % of control, the T/C (dose: 6.25 mg/kg/injection, schedule: Q01DX010 (ip), vehicle: saline) was 145, 152 (2×), 158 % of control and the T/C (dose: 6.5 mg/kg/injection, schedule: Q01DX009 (ip), vehicle: saline) was 131, 133, 134, 148 % of control. The T/C (dose: 6.6 mg/kg/injection, schedule: Q02DX010 (ip), vehicle: carboxymethylcellulose (CMC)) was 146 % of control, the T/C (dose: 6.8 mg/kg/injection, schedule: Q02DX010 (ip), vehicle: carboxymethylcellulose (CMC)) was 132 % of control and the T/C (dose: 7.2 mg/kg/injection, schedule: Q01DX Z (ip), vehicle: carboxymethylcellulose (CMC)) was 130 % of control. For the same molecule, the T/C (dose: 7.2 mg/kg/injection, schedule: Q02DX010 (ip), vehicle: other) was 142 and 147 % of control, the T/C (dose: 8.0 mg/kg/injection, schedule: Q01DX005 (ip), vehicle: saline) was 132 % of control and the T/C (dose: 8.0 mg/kg/injection, schedule: Q01DX006 (iv), vehicle: saline) was 137 % of control. The T/C (dose: 8.0 mg/kg/injection, schedule: Q01DX009 (oral), vehicle: saline) was 128 % of control, the T/C (dose: 8.0 mg/kg/injection, schedule: Q01DX009 (sc), vehicle: saline) was 143 % of control and the T/C (dose: 8.0 mg/kg/injection, schedule: Q01DX Z (oral), vehicle: saline) was 125 % of control (2×). The T/C (dose: 8.0 mg/kg/injection, schedule: Q01DX Z (sc), vehicle: saline) was 143 % of control, the T/C (dose: 8.0 mg/kg/injection, schedule: Q03HX024 (ip), vehicle: saline) was 139 % of control and the survivor count (dose: 8.0 mg/kg/injection, schedule: Q03HX024 (ip), vehicle: water) was 8 of 10. For the same molecule, the T/C (dose: 8.0 mg/kg/injection, schedule: Q03HX024 (oral), vehicle: saline) was 141 % of control, the T/C (dose: 8.0 mg/kg/injection, schedule: Q## X016 (ip), vehicle: saline) was 134 % of control and the T/C (dose: 8.0 mg/kg/injection, schedule: Q## X024 (ip), vehicle: saline) was 147 % of control. For the same molecule, the T/C (dose: 8.0 mg/kg/injection, schedule: Q## X024 (oral), vehicle: saline) was 134 % of control, the T/C (dose: 9.4 mg/kg/injection, schedule: Q02DX010 (ip), vehicle: carboxymethylcellulose (CMC)) was 142 and 146 % of control and the T/C (dose: 9.89 mg/kg/injection, schedule: Q02DX010 (ip), vehicle: carboxymethylcellulose (CMC)) was 131, 145, 146, 152, 153 % of control. For the same molecule, the T/C (dose: 10.0 mg/kg/injection, schedule: Q01DX Z (ip), vehicle: saline) was 133 % of control, the T/C (dose: 10.0 mg/kg/injection, schedule: Q02DX010 (ip), vehicle: carboxymethylcellulose (CMC)) was 132, 143, 144 % of control and the T/C (dose: 10.0 mg/kg/injection, schedule: Q04DX002 (ip), vehicle: saline) was 95, 107, 116, 135 % of control. The T/C (dose: 11.0 mg/kg/injection, schedule: Q02DX010 (ip), vehicle: carboxymethylcellulose (CMC)) was 141, 143, 145, 151 % of control, the T/C (dose: 12.0 mg/kg/injection, schedule: Q03DX006 (ip), vehicle: saline) was 137 % of control and the T/C (dose: 12.5 mg/kg/injection, schedule: Q01DX010 (ip), vehicle: saline) was 156, 159, 166, 181 % of control. For the same molecule, the T/C (dose: 13.0 mg/kg/injection, schedule: Q01DX009 (ip), vehicle: saline) was 141, 142, 144, 145 % of control, the T/C (dose: 14.0 mg/kg/injection, schedule: Q02DX008 (ip), vehicle: saline) was 142 % of control and the T/C (dose: 14.0 mg/kg/injection, schedule: Q02DX010 (ip), vehicle: carboxymethylcellulose (CMC)) was 143, 158, 161, 163 % of control. For the same molecule, the T/C (dose: 14.0 mg/kg/injection, schedule: Q07DX003 (ip), vehicle: saline) was 125 % of control, the T/C (dose: 14.4 mg/kg/injection, schedule: Q01DX Z (ip), vehicle: carboxymethylcellulose (CMC)) was 136 % of control and the T/C (dose: 15.0 mg/kg/injection, schedule: Q02DX010 (ip), vehicle: carboxymethylcellulose (CMC)) was 138 % of control. For the same molecule, the T/C (dose: 15.0 mg/kg/injection, schedule: Q02DX010 (ip), vehicle: other) was 142 % of control, the T/C (dose: 15.5 mg/kg/injection, schedule: Q02DX010 (ip), vehicle: carboxymethylcellulose (CMC)) was 140, 142, 156, 161, 162 % of control and the T/C (dose: 16.0 mg/kg/injection, schedule: Q01DX005 (ip), vehicle: saline) was 142 % of control. For the same molecule, the T/C (dose: 16.0 mg/kg/injection, schedule: Q01DX009 (ip), vehicle: saline) was 132 and 135 % of control, the T/C (dose: 16.0 mg/kg/injection, schedule: Q01DX009 (oral), vehicle: saline) was 139 % of control and the T/C (dose: 16.0 mg/kg/injection, schedule: Q01DX Z (ip), vehicle: saline) was 139 and 143 % of control. For the same molecule, the T/C (dose: 16.0 mg/kg/injection, schedule: Q01DX Z (oral), vehicle: saline) was 139 % of control, the T/C (dose: 16.0 mg/kg/injection, schedule: Q02DX010 (ip), vehicle: carboxymethylcellulose (CMC)) was 153 (2×), 155, 166 % of control and the T/C (dose: 16.0 mg/kg/injection, schedule: Q03HX024 (oral), vehicle: saline) was 146 % of control. For the same molecule, the T/C (dose: 16.0 mg/kg/injection, schedule: Q04DX003 (ip), vehicle: saline) was 132 % of control, the T/C (dose: 16.0 mg/kg/injection, schedule: Q## X003 (ip), vehicle: saline) was 127 % of control and the T/C (dose: 16.0 mg/kg/injection, schedule: Q## X008 (ip), vehicle: saline) was 143 % of control. The T/C (dose: 18.0 mg/kg/injection, schedule: Q01DX014 (ip), vehicle: saline) was 141 % of control, the T/C (dose: 18.0 mg/kg/injection, schedule: Q01DX015 (ip), vehicle: saline) was 148 % of control and the T/C (dose: 18.0 mg/kg/injection, schedule: Q01DX Z (ip), vehicle: carboxymethylcellulose (CMC)) was 140 % of control. The T/C (dose: 20.0 mg/kg/injection, schedule: Q01DX Z (ip), vehicle: saline) was 125 % of control, the T/C (dose: 20.0 mg/kg/injection, schedule: Q04DX002 (ip), vehicle: saline) was 107, 120, 122, 135 % of control and the T/C (dose: 21.0 mg/kg/injection, schedule: Q02DX010 (ip), vehicle: carboxymethylcellulose (CMC)) was 165, 170, 177, 186 % of control. The T/C (dose: 23.0 mg/kg/injection, schedule: Q02DX010 (ip), vehicle: carboxymethylcellulose (CMC)) was 159, 160, 166, 167 (2×), 169, 183, 195 % of control, the T/C (dose: 24.0 mg/kg/injection, schedule: Q02DX010 (ip), vehicle: carboxymethylcellulose (CMC)) was 147, 156, 173, 185 % of control and the T/C (dose: 24.0 mg/kg/injection, schedule: Q02DX010 (ip), vehicle: other) was 147 % of control.
